In the supplement of paper PMC12009310:
Where a name gives a salt, the structure may show the parent alone. ± gives the standard deviation of the averaged measurements. This is one part of the list. Plates or batches differ in their baseline, so values are only roughly comparable.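 The cells are a mouse kidney inner medullary collecting duct line, silenced either for the ciliary gene Rpgrip1l or with a non-targeting control siRNA.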

Experiments:
[1] = tested on: mIMCD3; assay: robust z score of cell number vs plate controls; higher = more cells (less cytotoxic); settings: 10 µM, 48 h
[2] = tested on: mIMCD3; assay: robust z score of cilia incidence (% cells with single cilium) vs plate controls; higher = more ciliated cells; settings: 10 µM; 48 h; siRNA: siScr
[3] = tested on: mIMCD3; assay: robust z score of cilia incidence (% cells with single cilium) vs plate controls; higher = more ciliated cells (rescue of cilia loss); settings: 10 µM; 48 h; siRNA: siRpgrip1l

Row | Compound | robust z score of cell number ([1]; siRNA: siRpgrip1l) | robust z score of cell number ([1]; siRNA: siScr) | robust z score of cilia incidence [2] | robust z score of cilia incidence [3]
1 | NCC(O)c1ccc(O)cc1 (centres undefined) [Octopamine hydrochloride] | 0.99 ± 5.2 | 1.6 ± 1.3 | -0.706 ± 1.1 | -10.5 ± 5.8
2 | CN1[C@@H]2CC[C@H]1CC(OC(=O)N1Cc3ccccc3NC1=O)C2 (some centres undefined) [DAU 5884 hydrochloride] | -1.62 ± 0.64 | -7.27 ± 11 | -5.68 ± 1.5 | -23.9 ± 13
3 | CC(C)C[C@H]1C(=O)N2CCC[C@H]2[C@]2(O)O[C@](NC(=O)[C@@H]3C=C4c5cccc6[nH]c(Br)c(c56)C[C@H]4N(C)C3)(C(C)C)C(=O)N12 [Bromocriptine mesylate] | -86.7 ± 75 | -54.6 ± 30 | -18.1 ± 4.5 | -32 ± 17
4 | NC(C(=O)O)c1nn[nH]n1 (racemic) [(RS)-(Tetrazol-5-yl)glycine] | 3.57 ± 3.1 | 3.33 ± 3.1 | 2.72 ± 1.9 | -8.94 ± 7.7
5 | COC(=O)[C@@H](N)CCCNC(=N)N[N+](=O)[O-] [L-NAME hydrochloride] | 3.79 ± 1.3 | 4.78 ± 6.9 | -0.131 ± 1.4 | -8.43 ± 8.1
6 | C[C@H](Cc1ccc(OCC(=O)O)cc1)NC[C@H](O)c1cccc(Cl)c1 | -3.02 ± 2.2 | -1.34 ± 0.21 | -4.49 ± 4.3 | -9.19 ± 1
